{"source": "PubChem BioAssay (NCATS)", "key": {"[1]": {"assay": "qHTS Assay for Modulators of Human Peripheral Myelin Protein 22 (PMP22) Expression/Activity (AID 1967)", "settings": "Cell-based PMP22 reporter, dual-color luciferase ratio", "summary_of_the_method": "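Mouse MSC80 Schwann line, Pmp22 promoter–CBG68 reporter, EF-alpha–CBR internal control. 24h compound exposure, 37 °C/5% CO2, DMEM + 10% FBS. Readout: corrected green/red luminescence ratio, normalized to untreated cells; concentration-response curves fitted and classified.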"}, "[2]": {"assay": "S16 Schwann cell PMP22 intronic element beta-lactamase assay (AID 624044)", "settings": "S16 rat Schwann cells, PMP22 element beta-lactamase FRET, 24 h; measured here: 460 nm blue channel", "summary_of_the_method": "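Rat S16 Schwann cells with beta-Lac driven by a PMP22 intronic element, compound-treated 24 h at 37 °C. LiveBLAzer FRET B/G read: 460 nm normalized to potassium clavulanate vs DMSO; 535 nm FRET as viability; concentration-effect curves classified.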"}, "[3]": {"assay": "qHTS for identification of novel therapeutic agents for treatment of microphthalmiaassociated transcription factor (MiT) renal cell carcinoma (RCC) (AID 1963991)", "settings": "CellTiter-Glo, 48 h, stronger effect = lower value", "summary_of_the_method": "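Curves over 11 concentrations were fitted to CellTiter-Glo luminescence, scaled between empty wells (0%) and DMSO (100%) viability. Cells were UOK109, UOK124 and UOK145 TFE3-fusion RCC lines at 500/well, exposed 48 hours at 37 C.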"}, "[4]": {"assay": "qHTS Validation Assay to Find Inhibitors of Chronic Active B-Cell Receptor Signaling (AID 485345)", "settings": "ABC-DLBCL cells, chronic BCR signaling reporter", "summary_of_the_method": "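TMD8 ABC-DLBCL cells stably carrying doxycycline-inducible IkappaBalpha–green luciferase fusion plus unfused red luciferase; compounds 46 uM to 3 nM, 4 h at 37C with doxycycline. Corrected green/red luminescence ratio normalized to 10 uM MG-132 and basal cell wells; curves fitted.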"}, "[5]": {"assay": "Nrf2 qHTS screen for inhibitors: Validation (AID 493153)", "settings": "A549 ARE-Fluc reporter, 18-24 h; AC50: CellTiter-Fluor fluorescence read, measured here: cytotoxicity CellTiter-Fluor AC50; viability change: measured here: cytotoxicity max response", "summary_of_the_method": "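A549 cells carrying an ARE-driven firefly luciferase reporter, in 5% FBS OPTI-MEM, were treated with compounds in concentration-response for 18-24 h at 37°C. Viability was read by CellTiter-Fluor fluorescence, then Nrf2 activity by luciferase luminescence.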"}, "[6]": {"settings": "measured here: red reporter channel AC50, EF-alpha promoter control reporter in MSC80 mouse Schwann cells"}, "[7]": {"settings": "measured here: green reporter channel AC50, mouse Pmp22 promoter in mouse Schwann cells"}, "[8]": {"settings": "measured here: CBG/CBR ratio read-out"}, "[9]": {"settings": "measured here: CBR control luciferase (viability counter)"}}, "note": "This is one part of the list. The main result of the screen is listed elsewhere. These columns were measured beside it and carry no call. The list favours compounds with an active or inconclusive main result. For part of these data: Potencies come from curve fits of mixed quality, noted in brackets."}
{"smiles": "C[C@H](CS)C(=O)N1CCC[C@H]1C(=O)O", "values": [{"measurement": "AC50", "setting": "[1]; [6]", "value": "84.9 µM [falling, single point]"}]}
{"smiles": "Cc1cc2c(cc1Cl)N(C(=O)Nc1ccnc3ccccc13)CC2", "values": [{"measurement": "AC50", "setting": "[1]; [6]", "value": "8.49 µM [falling, full curve, poor fit]"}]}
{"smiles": "CC(=O)/C(C)=N/O", "values": [{"measurement": "AC50", "setting": "[1]; [6]", "value": "84.9 µM [falling, single point]"}]}
{"smiles": "CCCc1nc2c(C)cc(-c3nc4ccccc4n3C)cc2n1Cc1ccc(-c2ccccc2C(=O)O)cc1", "values": [{"measurement": "AC50", "setting": "[2]", "value": "25.1 µM [falling, single point]"}, {"measurement": "z-score", "setting": "[3]; TFE3-RCC UOK109 viability, measured here: UOK109 Z-AUC", "value": 0.631}, {"measurement": "z-score", "setting": "[3]; TFE3-RCC viability, measured here: UOK124 Z-AUC", "value": 0.351}, {"measurement": "z-score", "setting": "[3]; TFE3-RCC viability, measured here: UOK145 Z-AUC", "value": -0.115}]}
{"smiles": "CCNC(=O)[C@H]1O[C@@H](n2cnc3c(N)nc(NCCc4ccc(CCC(=O)O)cc4)nc32)[C@H](O)[C@H]1O", "values": [{"measurement": "AC50", "setting": "[1]; [6]", "value": "0.601 µM [rising, partial curve]"}]}
{"smiles": "CCN1CCc2nc(N)oc2CC1", "values": [{"measurement": "AC50", "setting": "[1]; [6]", "value": "84.9 µM [falling, single point]"}]}
{"smiles": "COc1ccc2c(c1OC)C(=O)OC2C1c2c(cc3c(c2OC)OCO3)CCN1C", "note": "(stereo not given)", "values": [{"measurement": "AC50", "setting": "[1]; [6]", "value": "67.5 µM [falling, partial curve, poor fit]"}]}
{"smiles": "NC(N)=NC(=O)c1nc(Cl)c(N2CCCCCC2)nc1N", "values": [{"measurement": "AC50", "setting": "[1]; [7]", "value": "84.9 µM [falling, single point]"}, {"measurement": "AC50", "setting": "[1]; [6]", "value": "95.3 µM [falling, single point]"}]}
{"smiles": "S=C(Nc1ccccc1)Nc1nccs1", "values": [{"measurement": "AC50", "setting": "[1]; [7]", "value": "23.9 µM [falling, full curve]"}, {"measurement": "AC50", "setting": "[1]; [6]", "value": "37.9 µM [falling, full curve, poor fit]"}, {"measurement": "AC50", "setting": "[4]; [8]", "value": "18.4 µM [falling, single point]"}, {"measurement": "AC50", "setting": "[4]; [9]", "value": "16.4 µM [falling, single point]"}]}
{"smiles": "O=C1NC(O)=NC1(c1ccccc1)c1ccccc1", "values": [{"measurement": "AC50", "setting": "[1]; [7]", "value": "95.3 µM [falling, single point]"}, {"measurement": "AC50", "setting": "[1]; [6]", "value": "95.3 µM [falling, single point]"}]}
{"smiles": "C/C=C1\\C(=O)CC2C3CCC4=CC(=O)CC[C@]4(C)C3CC[C@]12C", "note": "(stereo not given in full)", "values": [{"measurement": "AC50", "setting": "[1]; [7]", "value": "95.3 µM [falling, single point]"}, {"measurement": "AC50", "setting": "[1]; [6]", "value": "75.7 µM [falling, single point]"}]}
{"smiles": "NC(=NCc1ccc(Cl)c(Cl)c1)NC(=O)c1nc(Cl)c(N)nc1N", "values": [{"measurement": "AC50", "setting": "[1]; [7]", "value": "19 µM [falling, full curve]"}, {"measurement": "AC50", "setting": "[1]; [6]", "value": "21.3 µM [falling, full curve]"}]}
{"smiles": "CC(CN(C)C)CN1c2ccccc2CCc2ccccc21", "note": "(stereo not given)", "values": [{"measurement": "AC50", "setting": "[1]; [7]", "value": "53.6 µM [falling, partial curve]"}, {"measurement": "AC50", "setting": "[1]; [6]", "value": "42.6 µM [falling, partial curve]"}, {"measurement": "viability change", "setting": "[5]", "value": -5.96, "unit": "%"}]}
{"smiles": "C=C[C@@H]1CN2CC[C@@H]1C[C@H]2[C@H](O)c1ccnc2ccc(OC)cc12", "values": [{"measurement": "AC50", "setting": "[1]; [7]", "value": "75.7 µM [falling, single point]"}, {"measurement": "AC50", "setting": "[1]; [6]", "value": "84.9 µM [falling, single point]"}]}
{"smiles": "CNC(=O)[C@H]1O[C@@H](n2cnc3c(NCc4cccc(I)c4)ncnc32)[C@H](O)[C@H]1O", "values": [{"measurement": "AC50", "setting": "[1]; [7]", "value": "75.7 µM [falling, single point]"}, {"measurement": "AC50", "setting": "[1]; [6]", "value": "84.9 µM [falling, single point]"}]}
{"smiles": "CN1CCCC1CCOC(C)(c1ccccc1)c1ccc(Cl)cc1", "note": "(stereo not given)", "values": [{"measurement": "AC50", "setting": "[1]; [7]", "value": "37.9 µM [falling, full curve]"}, {"measurement": "AC50", "setting": "[1]; [6]", "value": "30.1 µM [falling, full curve]"}, {"measurement": "AC50", "setting": "[4]; [8]", "value": "23.1 µM [falling, single point]"}, {"measurement": "AC50", "setting": "[4]; [9]", "value": "25.9 µM [falling, single point]"}]}
{"smiles": "C[C@H]1O[C@@H](n2cc(F)c(=O)[nH]c2=O)[C@H](O)[C@@H]1O", "values": [{"measurement": "AC50", "setting": "[1]; [7]", "value": "60.1 µM [falling, partial curve]"}, {"measurement": "AC50", "setting": "[1]; [6]", "value": "42.6 µM [falling, partial curve]"}]}
{"smiles": "CC1=C(C)C(=O)C(CCCCC#CCCCC#CCO)=C(C)C1=O", "values": [{"measurement": "AC50", "setting": "[1]; [7]", "value": "60.1 µM [falling, partial curve]"}, {"measurement": "AC50", "setting": "[1]; [6]", "value": "75.7 µM [falling, partial curve]"}, {"measurement": "AC50", "setting": "[4]; [8]", "value": "16.4 µM [falling, partial curve]"}]}
{"smiles": "N=C1Sc2ccccc2C2=NCCCN12", "values": [{"measurement": "AC50", "setting": "[1]; [7]", "value": "84.9 µM [falling, single point]"}, {"measurement": "AC50", "setting": "[1]; [6]", "value": "84.9 µM [falling, single point]"}]}
{"smiles": "C1CCC(N=C(NC23CC4CC(CC(C4)C2)C3)N2CCOCC2)CC1", "values": [{"measurement": "AC50", "setting": "[1]; [7]", "value": "75.7 µM [falling, single point]"}, {"measurement": "AC50", "setting": "[1]; [6]", "value": "84.9 µM [falling, partial curve]"}]}
{"smiles": "CC(=O)NNC(=O)N1Cc2ccccc2Oc2ccc(Cl)cc21", "values": [{"measurement": "AC50", "setting": "[1]; [6]", "value": "1.07 µM [rising, full curve, poor fit]"}]}
{"smiles": "COCCOC(=O)C1=C(C)NC(C)=C(C(=O)OC(C)C)C1c1cccc([N+](=O)[O-])c1", "note": "(stereo not given)", "values": [{"measurement": "AC50", "setting": "[1]; [7]", "value": "84.9 µM [falling, partial curve]"}, {"measurement": "AC50", "setting": "[1]; [6]", "value": "75.7 µM [falling, partial curve, poor fit]"}]}
